{
  "sequences": {"note": "Chains of the proteins cited; added tags and fusions are not shown. Chains listed by the source or under a name are the forms on record and can include a tag or linker.", "PCSK9 (Homo sapiens), one chain, as listed by the source, chain 1 of 2": "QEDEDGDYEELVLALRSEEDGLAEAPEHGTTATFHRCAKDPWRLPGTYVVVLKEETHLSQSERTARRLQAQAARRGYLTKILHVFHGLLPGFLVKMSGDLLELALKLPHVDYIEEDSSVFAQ", "PCSK9 (Homo sapiens), one chain, as listed by the source, chain 2 of 2": "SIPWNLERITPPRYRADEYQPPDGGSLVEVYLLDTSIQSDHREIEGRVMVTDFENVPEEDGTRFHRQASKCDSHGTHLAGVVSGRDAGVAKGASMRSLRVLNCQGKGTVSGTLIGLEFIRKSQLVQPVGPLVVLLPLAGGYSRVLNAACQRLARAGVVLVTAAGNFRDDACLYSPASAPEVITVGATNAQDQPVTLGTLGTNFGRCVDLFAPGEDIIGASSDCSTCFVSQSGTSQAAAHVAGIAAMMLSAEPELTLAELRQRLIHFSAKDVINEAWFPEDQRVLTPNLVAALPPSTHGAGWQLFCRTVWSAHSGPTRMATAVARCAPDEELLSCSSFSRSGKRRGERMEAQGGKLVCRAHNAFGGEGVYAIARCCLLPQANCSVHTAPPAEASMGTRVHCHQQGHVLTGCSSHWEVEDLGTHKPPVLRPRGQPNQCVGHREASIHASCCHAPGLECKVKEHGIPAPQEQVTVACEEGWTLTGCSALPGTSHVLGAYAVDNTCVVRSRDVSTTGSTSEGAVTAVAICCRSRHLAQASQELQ"},
  "source": "patent US20200172896",
  "about": "“EVOLUTION OF BIOACTIVE SEQUENCE-DEFINED SYNTHETIC POLYMERS USING DNA-TEMPLATED POLYMERIZATION” (President and Fellows of Harvard College, published 2020)",
  "key": {"[1]": {"tested_on": "PCSK9 (Homo sapiens)", "assay": "pull-down", "conditions": "unfunctionalized DNA, no evident binding; purified recombinant protein; protein details: ACROBiosystems PC9-H5223; single-stranded DNA; variant of PCSK9-A5"}, "[2]": {"tested_on": "PCSK9 (Homo sapiens)", "assay": "SPR", "conditions": "HFNAP side chains as PCSK9-Evo5; no binding up to 300 nM PCSK9; purified recombinant protein; protein details: ACROBiosystems PC9-H5223; label: 3' iSp18-dual biotin; single-stranded DNA; variant of PCSK9-Evo5"}, "[3]": {"tested_on": "PCSK9 (Homo sapiens)", "assay": "inhibition of the protein", "conditions": "3' idT, no side chains; unfunctionalized DNA, no inhibition of PCSK9-LDLR binding up to 200 nM; purified recombinant protein; protein details: ACROBiosystems PC9-H5223; single-stranded DNA; variant of PCSK9-Evo5-syn"}},
  "note": "For part of these data: Negatives hold for the conditions tested.",
  "data": [
    {"sequence": "CGAATCAGATTGGACCAGCCACGTTACTGATTCTTCTACCGTTTTTGCCCCCGGCACCTTCTGGAGTCCAGATGTAGGTAG [PCSK9A5-DNA]", "values": [
      {"measurement": "binding result", "setting": "[1]", "result": "no binding"}
    ]},
    {"sequence": "TGCTACCGTTGTTTACCCTGCCACCTTCTGGAGTCCAGATGTAG [PCSK9-EvoTrunc]", "values": [
      {"measurement": "Kd", "setting": "[2]", "result": "> 300", "unit": "nM"}
    ]},
    {"sequence": "TGCTACCGTTGTTTACCCTGCCACCTTCTGGAGTCCAGATGTAGGTAG [Evo5DNA-InvdT]", "values": [
      {"measurement": "functional effect of the aptamer", "setting": "[3]", "result": "not active"}
    ]}
  ]
}
